Results are given in words; binding and its absence hold for the method and conditions named. Some entries that bind do so weakly or less than the wild type.
Target: C/EBPβ (mouse, in 3T3^RAS-β^UTR cells) (mouse) (UniProt P28033)
Assay: native gel or EMSA; nuclear extracts of 3T3^RAS-β^UTR cells (control or Upf1-depleted) with a 32P-labelled double-stranded consensus C/EBP site probe, native PAGE; homodimer species on DNA

Chains of the proteins cited; added tags and fusions are not shown.
UniProt P28033: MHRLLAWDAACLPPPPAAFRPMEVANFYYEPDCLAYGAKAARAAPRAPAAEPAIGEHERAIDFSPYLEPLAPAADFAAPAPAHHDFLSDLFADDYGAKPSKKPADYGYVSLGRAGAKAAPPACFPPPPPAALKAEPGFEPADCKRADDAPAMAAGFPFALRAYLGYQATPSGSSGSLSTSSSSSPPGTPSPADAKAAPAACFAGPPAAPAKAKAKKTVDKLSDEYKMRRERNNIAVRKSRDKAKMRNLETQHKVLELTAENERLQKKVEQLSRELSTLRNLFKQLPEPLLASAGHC

binding: binds
Substance: C/EBPβ (mouse, in 3T3^RAS-β^UTR cells) (from UniProt P28033 1-296)

Reference: PMC13469816
